# The list shows only some results of the screen, not a fair sample: it is rich in T/C values a quarter to a half above the control, in often repeated tests (any T/C) and in doses without a T/C. Other doses and runs of a compound stand elsewhere. T/C gives the treated animals as a percentage of the vehicle group. Some entries give survivors of the animals treated and no T/C: the source holds a T/C of zero for them, seemingly a mark for toxic or unscored doses. Some doses without a T/C left all or most animals alive at the check, yet need not have been tolerated: survival well below the control is almost never listed, so the zero probably covers shortened survival too. Counts of survivors are from the toxicity check (mostly the fifth day) where no day follows; animals may have died later. Schedules are NCI's codes, read here as Q, the interval in days (D) or hours (H), X, the number of doses. Some entries hold several experiments; the results are listed from low to high. Where survival is the endpoint, this PubChem deposit counts one and a half times the control or more as active, and values a quarter to a half above the control carry no call in these data; other NCI protocols may use other cut-offs. Some T/C values carry the count of animals alive at the toxicity check (mostly the fifth day); where none is given, no animal had died by that day.
# System: B6C3F1 mice, ip Sarcoma M5076, median survival T/C
# Test: NCI In Vivo Anticancer Drug Screen. Data for tumor model Sarcoma M5076 (intraperitoneal) in B6C3F1 mice
# Conditions: T/C endpoint: median survival time, higher T/C = longer survival
# How it was run: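 Antitumour effect is judged in tumour-bearing mice by comparing survival after compound dosing against vehicle-only animals, reported as T/C.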
# [1] = dose: 800.0 mg/kg/injection, schedule: Q04DX004 (ip), vehicle: Klucel (hydroxypropylcellulose) (HPC)
# [2] = dose: 25.0 mg/kg/injection, schedule: Q04DX004 (ip), vehicle: Klucel (hydroxypropylcellulose) (HPC)
# [3] = dose: 50.0 mg/kg/injection, schedule: Q04DX004 (ip), vehicle: Klucel (hydroxypropylcellulose) (HPC)
# [4] = dose: 200.0 mg/kg/injection, schedule: Q04DX004 (ip), vehicle: Klucel (hydroxypropylcellulose) (HPC)
# [5] = dose: 400.0 mg/kg/injection, schedule: Q04DX004 (ip), vehicle: Klucel (hydroxypropylcellulose) (HPC)
# [6] = dose: 200.0 mg/kg/injection, schedule: Q04DX004 (ip), vehicle: saline with Tween-80
# [7] = dose: 400.0 mg/kg/injection, schedule: Q04DX004 (ip), vehicle: saline with Tween-80
compound,measurement,setting,value
O=c1[nH]cnc2n[nH]nc12,survivor count,"dose: 1200.0 mg/kg/injection, schedule: Q04DX004 (ip), vehicle: Klucel (hydroxypropylcellulose) (HPC)",3 of 10 on day 14
N#CC1C(=O)NC(=O)C(C#N)C1c1ccc(Cl)c(Cl)c1 (centres undefined),survivor count,[1],0 of 10 on day 14
Nc1c(/C=C/c2cc3cc(C4=NCCN4)ccc3o2)[nH]c2cc(C3=NCCN3)ccc12,T/C,[2],128 % of control [9 of 10 alive on day 14]
same,T/C,[3],134 [7 of 10 alive on day 14] and 137 % of control [8 of 10 alive on day 14]
same,survivor count,"dose: 100.0 mg/kg/injection, schedule: Q04DX004 (ip), vehicle: Klucel (hydroxypropylcellulose) (HPC)",3 of 10 on day 14 and 9 of 10 on day 14
same,survivor count,[4],0 of 10 on day 14
same,survivor count,[5],0 of 10 on day 14
O=C(Nc1cccc(O)c1)C(Cl)=C(Cl)Cl,survivor count,"dose: 25.0 mg/kg/injection, schedule: Q04DX004 (ip), vehicle: other",1 of 10 on day 14
same,survivor count,"dose: 50.0 mg/kg/injection, schedule: Q04DX004 (ip), vehicle: other",0 of 10 on day 14
same,survivor count,"dose: 100.0 mg/kg/injection, schedule: Q04DX004 (ip), vehicle: other",0 of 10 on day 14
COc1cc([C@@H]2c3cc4c(cc3[C@H](O)[C@H]3COC(=O)[C@H]23)OCO4)cc(OC)c1OC,T/C,"dose: 3.5 mg/kg/injection, schedule: Q04DX004 (ip), vehicle: saline with Tween-80",131 % of control
same,T/C,"dose: 9.6 mg/kg/injection, schedule: Q04DX004 (ip), vehicle: saline with Tween-80",136 % of control
same,T/C,"dose: 16.0 mg/kg/injection, schedule: Q04DX004 (ip), vehicle: saline with Tween-80",137 % of control [8 of 10 alive on day 14]
same,survivor count,"dose: 26.4 mg/kg/injection, schedule: Q04DX004 (ip), vehicle: saline with Tween-80",4 of 10 on day 14
same,T/C,"dose: 26.7 mg/kg/injection, schedule: Q04DX004 (ip), vehicle: saline with Tween-80",146 % of control [9 of 10 alive on day 14]
same,survivor count,"dose: 44.4 mg/kg/injection, schedule: Q04DX004 (ip), vehicle: saline with Tween-80",2 of 10 on day 14
same,survivor count,"dose: 74.0 mg/kg/injection, schedule: Q04DX004 (ip), vehicle: saline with Tween-80",0 of 10 on day 14
same,survivor count,"dose: 123.33 mg/kg/injection, schedule: Q04DX004 (ip), vehicle: saline with Tween-80",0 of 10 on day 14
CN(C)c1ccc2c(Nc3ccc(NS(C)(=O)=O)cc3)c3ccc(N(C)C)cc3nc2c1,T/C,[2],145 % of control
same,T/C,"dose: 36.0 mg/kg/injection, schedule: Q04DX004 (ip), vehicle: Klucel (hydroxypropylcellulose) (HPC)",129 % of control
same,T/C,[3],136 % of control
same,T/C,"dose: 60.0 mg/kg/injection, schedule: Q04DX004 (ip), vehicle: Klucel (hydroxypropylcellulose) (HPC)",133 % of control
same,T/C,"dose: 100.0 mg/kg/injection, schedule: Q04DX004 (ip), vehicle: Klucel (hydroxypropylcellulose) (HPC), evaluated on day 60",134 % of control
same,T/C,"dose: 100.0 mg/kg/injection, schedule: Q04DX004 (ip), vehicle: Klucel (hydroxypropylcellulose) (HPC), evaluated on day 75",147 % of control
same,T/C,[4],147 % of control
same,survivor count,[4],5 of 10 on day 14
same,survivor count,"dose: 277.8 mg/kg/injection, schedule: Q04DX004 (ip), vehicle: Klucel (hydroxypropylcellulose) (HPC)",9 of 10 on day 14
same,T/C,[5],138 % of control [8 of 10 alive on day 14]
same,survivor count,[5],0 of 10 on day 14
same,survivor count,"dose: 463.0 mg/kg/injection, schedule: Q04DX004 (ip), vehicle: Klucel (hydroxypropylcellulose) (HPC)",1 of 10 on day 14
same,survivor count,[1],8 of 10 on day 14
CS(=O)(=O)OCCCCOS(C)(=O)=O,survivor count,"dose: 25.0 mg/kg/injection, schedule: Q04DX004 (ip), vehicle: saline with Tween-80",9 of 10 on day 14
same,survivor count,"dose: 50.0 mg/kg/injection, schedule: Q04DX004 (ip), vehicle: saline with Tween-80",8 of 10 on day 14
same,survivor count,"dose: 100.0 mg/kg/injection, schedule: Q04DX004 (ip), vehicle: saline with Tween-80",4 of 10 on day 14
NC(C/[N+]([O-])=N/O)C(=O)O (centres undefined),T/C,"dose: 60.0 mg/kg/injection, schedule: Q04DX005 (ip), vehicle: alkali diluted with saline",127 % of control
same,survivor count,"dose: 480.0 mg/kg/injection, schedule: Q04DX005 (ip), vehicle: alkali diluted with saline",5 of 8 on day 17
COC1=C(C)C(=O)C2=C(C1=O)C(CO)N1C(C#N)C3CC4C(C1C2N1CCOC41)N3C (centres undefined),survivor count,"dose: 4.0 mg/kg/injection, schedule: Q04DX004 (ip), vehicle: acid diluted with saline",4 of 10 on day 14
same,survivor count,"dose: 8.0 mg/kg/injection, schedule: Q04DX004 (ip), vehicle: acid diluted with saline",0 of 10 on day 14
same,survivor count,"dose: 16.0 mg/kg/injection, schedule: Q04DX004 (ip), vehicle: acid diluted with saline",0 of 10 on day 14
CC(=O)OC1C(O)C(C)OC(OC2C(OC(=O)C3CCC4C(C3)OC3(CC(OC(=O)/C=C/c5ccccc5)C(C)CO3)C43CO3)OC(C)C(O)C2OC(C)=O)C1O (centres undefined),T/C,"dose: 4.5 mg/kg/injection, schedule: Q04DX004 (ip), vehicle: saline + alcohol",126 [9 of 10 alive on day 14] and 127 % of control
same,T/C,"dose: 8.0 mg/kg/injection, schedule: Q01DX009 (ip), vehicle: saline + alcohol",148 % of control
same,T/C,"dose: 8.0 mg/kg/injection, schedule: Q04DX004 (ip), vehicle: saline + alcohol",134 % of control
same,T/C,"dose: 9.0 mg/kg/injection, schedule: Q04DX004 (ip), vehicle: saline + alcohol",128 and 137 % of control
same,T/C,"dose: 16.0 mg/kg/injection, schedule: Q01DX009 (ip), vehicle: saline + alcohol",132 [9 of 10 alive on day 14] and 148 % of control
same,T/C,"dose: 16.0 mg/kg/injection, schedule: Q04DX004 (ip), vehicle: saline + alcohol",143 % of control [9 of 10 alive on day 14]
same,T/C,"dose: 18.0 mg/kg/injection, schedule: Q04DX004 (ip), vehicle: saline + alcohol",137 and 139 % of control
same,survivor count,"dose: 32.0 mg/kg/injection, schedule: Q01DX009 (ip), vehicle: saline + alcohol",1 of 10 on day 14
same,T/C,"dose: 36.0 mg/kg/injection, schedule: Q04DX004 (ip), vehicle: saline + alcohol",131 and 148 % of control
same,survivor count,"dose: 64.0 mg/kg/injection, schedule: Q01DX009 (ip), vehicle: saline + alcohol",0 of 10 on day 14
same,survivor count,"dose: 72.0 mg/kg/injection, schedule: Q04DX004 (ip), vehicle: saline + alcohol",1 of 10 on day 14 and 3 of 10 on day 14
same,survivor count,"dose: 128.0 mg/kg/injection, schedule: Q01DX009 (ip), vehicle: saline + alcohol",0 of 10 on day 14
c1ccc(P(CCNCCP(c2ccccc2)c2ccccc2)c2ccccc2)cc1,survivor count,[6],4 of 10 on day 14
same,survivor count,[7],0 of 10 on day 14
CNC(=O)Oc1ccc(S(=O)(=O)c2ccc(OC(=O)NC)cc2)cc1,survivor count,[7],0 of 10 on day 14 and 3 of 10 on day 14
CN1[C@H]2C=CC(=O)[C@]1(Cl)[C@H]1C(=O)N(c3ccccc3)C(=O)[C@@H]21,survivor count,[6],10 of 10 on day 14
same,survivor count,[7],7 of 10 on day 14
CC[C@](O)(C(=O)O)c1cc2n(c(=O)c1CO)Cc1cc3ccccc3nc1-2,T/C,"dose: 12.5 mg/kg/injection, schedule: Q04DX004 (ip), vehicle: saline",131 % of control
same,T/C,"dose: 25.0 mg/kg/injection, schedule: Q04DX004 (ip), vehicle: saline",142 % of control [9 of 10 alive on day 14]
same,survivor count,"dose: 50.0 mg/kg/injection, schedule: Q04DX004 (ip), vehicle: saline",3 of 10 on day 14
same,survivor count,"dose: 100.0 mg/kg/injection, schedule: Q04DX004 (ip), vehicle: saline",0 of 10 on day 14
Cc1nnc2nc(N)[nH]n2c1=O,survivor count,"dose: 200.0 mg/kg/injection, schedule: Q04DX004 (ip), vehicle: water",1 of 10 on day 14
same,survivor count,"dose: 400.0 mg/kg/injection, schedule: Q04DX004 (ip), vehicle: water",0 of 10 on day 14
N=C(N)Sc1ccccn1,survivor count,"dose: 500.0 mg/kg/injection, schedule: Q04DX004 (ip), vehicle: saline",7 of 10 on day 14
same,survivor count,"dose: 1000.0 mg/kg/injection, schedule: Q04DX004 (ip), vehicle: saline",0 of 10 on day 14

# — PubChem BioAssay AID292 (DTP/NCI, 2004)
